From publication PMC10625565
These are yes or no findings as the source states them, for the method shown. Binding calls can cover weak binding; strength is not graded here.

Amino acid sequences for entries named in this document (tags omitted). A change or cut given only in a name is not applied to a line headed by its entry.
UniProt Q9XER7: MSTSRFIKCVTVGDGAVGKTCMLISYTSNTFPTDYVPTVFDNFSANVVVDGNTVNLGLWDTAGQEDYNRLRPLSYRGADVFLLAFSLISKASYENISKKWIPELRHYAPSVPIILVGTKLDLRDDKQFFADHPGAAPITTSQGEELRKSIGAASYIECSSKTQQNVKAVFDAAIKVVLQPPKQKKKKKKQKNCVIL

Target: MBP-PpRopGAP1 (wild type) (Physcomitrium patens)
Assay: pull-down; amylose resin loaded with wild-type or mutated MBP-PpRopGAP1, incubated with equal amounts of purified GST-PpROP4 forms for four hours; GST-PpROP4 stained with Coomassie blue; both purified

binding: binds weakly
Substance: GST-PpROP4 (wild type) (from UniProt Q9XER7)
